The list shows a part of the results.

Sequences of proteins named here, by UniProt entry; tags and fusion partners are left off. A change or cut given only in a name is not applied to a line headed by its entry.
UniProt Q96A47: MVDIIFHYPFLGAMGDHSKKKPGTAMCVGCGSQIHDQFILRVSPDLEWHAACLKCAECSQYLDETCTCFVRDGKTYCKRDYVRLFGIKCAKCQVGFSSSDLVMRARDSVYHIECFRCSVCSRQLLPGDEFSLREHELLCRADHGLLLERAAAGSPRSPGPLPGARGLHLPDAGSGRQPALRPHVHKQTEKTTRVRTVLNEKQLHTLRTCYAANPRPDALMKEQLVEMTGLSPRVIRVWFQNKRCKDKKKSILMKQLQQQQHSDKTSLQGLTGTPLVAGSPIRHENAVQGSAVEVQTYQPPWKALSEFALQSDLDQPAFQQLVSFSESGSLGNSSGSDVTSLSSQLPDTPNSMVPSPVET
UniProt O00425, whole entry, looked up: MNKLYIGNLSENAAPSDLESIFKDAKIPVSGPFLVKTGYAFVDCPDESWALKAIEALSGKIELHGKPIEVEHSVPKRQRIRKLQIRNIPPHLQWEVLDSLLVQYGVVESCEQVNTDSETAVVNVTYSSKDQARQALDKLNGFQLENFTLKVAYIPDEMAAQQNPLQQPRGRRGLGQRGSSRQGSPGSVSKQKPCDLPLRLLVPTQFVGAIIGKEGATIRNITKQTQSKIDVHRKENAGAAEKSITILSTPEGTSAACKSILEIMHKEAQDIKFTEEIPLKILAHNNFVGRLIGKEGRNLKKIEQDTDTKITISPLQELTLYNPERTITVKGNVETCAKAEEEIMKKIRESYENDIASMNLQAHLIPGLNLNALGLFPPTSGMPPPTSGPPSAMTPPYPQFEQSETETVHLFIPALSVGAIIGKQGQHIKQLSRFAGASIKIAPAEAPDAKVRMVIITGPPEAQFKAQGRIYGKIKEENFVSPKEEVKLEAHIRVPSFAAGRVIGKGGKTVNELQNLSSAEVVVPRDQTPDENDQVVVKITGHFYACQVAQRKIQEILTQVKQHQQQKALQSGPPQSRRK
UniProt O15397, whole entry, looked up: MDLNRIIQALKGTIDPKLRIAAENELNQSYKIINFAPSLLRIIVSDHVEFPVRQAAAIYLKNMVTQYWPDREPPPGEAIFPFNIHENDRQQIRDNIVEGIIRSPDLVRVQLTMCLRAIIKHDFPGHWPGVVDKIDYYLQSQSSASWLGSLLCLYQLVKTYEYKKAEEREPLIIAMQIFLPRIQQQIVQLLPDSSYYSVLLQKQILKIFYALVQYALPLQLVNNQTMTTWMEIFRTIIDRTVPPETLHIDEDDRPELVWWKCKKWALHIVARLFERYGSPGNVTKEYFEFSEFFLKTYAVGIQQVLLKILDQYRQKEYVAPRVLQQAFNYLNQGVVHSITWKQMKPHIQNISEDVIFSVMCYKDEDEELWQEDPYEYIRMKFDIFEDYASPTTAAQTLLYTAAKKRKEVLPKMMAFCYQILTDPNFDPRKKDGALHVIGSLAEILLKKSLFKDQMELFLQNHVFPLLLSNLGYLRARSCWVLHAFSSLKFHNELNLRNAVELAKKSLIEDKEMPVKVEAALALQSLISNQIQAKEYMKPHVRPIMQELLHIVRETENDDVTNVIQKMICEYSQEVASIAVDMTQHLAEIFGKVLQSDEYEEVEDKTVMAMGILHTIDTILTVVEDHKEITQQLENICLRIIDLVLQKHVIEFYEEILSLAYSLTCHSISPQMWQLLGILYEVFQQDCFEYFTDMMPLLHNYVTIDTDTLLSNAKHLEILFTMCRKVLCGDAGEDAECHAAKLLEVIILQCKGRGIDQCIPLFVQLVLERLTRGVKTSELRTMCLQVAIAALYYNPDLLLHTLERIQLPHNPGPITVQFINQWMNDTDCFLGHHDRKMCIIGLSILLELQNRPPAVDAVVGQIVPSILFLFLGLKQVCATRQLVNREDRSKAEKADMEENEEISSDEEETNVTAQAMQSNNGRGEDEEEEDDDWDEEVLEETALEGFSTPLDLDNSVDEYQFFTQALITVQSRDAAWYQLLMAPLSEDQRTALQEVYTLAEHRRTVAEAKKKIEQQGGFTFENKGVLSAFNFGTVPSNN
UniProt Q9NVM9, whole entry, looked up: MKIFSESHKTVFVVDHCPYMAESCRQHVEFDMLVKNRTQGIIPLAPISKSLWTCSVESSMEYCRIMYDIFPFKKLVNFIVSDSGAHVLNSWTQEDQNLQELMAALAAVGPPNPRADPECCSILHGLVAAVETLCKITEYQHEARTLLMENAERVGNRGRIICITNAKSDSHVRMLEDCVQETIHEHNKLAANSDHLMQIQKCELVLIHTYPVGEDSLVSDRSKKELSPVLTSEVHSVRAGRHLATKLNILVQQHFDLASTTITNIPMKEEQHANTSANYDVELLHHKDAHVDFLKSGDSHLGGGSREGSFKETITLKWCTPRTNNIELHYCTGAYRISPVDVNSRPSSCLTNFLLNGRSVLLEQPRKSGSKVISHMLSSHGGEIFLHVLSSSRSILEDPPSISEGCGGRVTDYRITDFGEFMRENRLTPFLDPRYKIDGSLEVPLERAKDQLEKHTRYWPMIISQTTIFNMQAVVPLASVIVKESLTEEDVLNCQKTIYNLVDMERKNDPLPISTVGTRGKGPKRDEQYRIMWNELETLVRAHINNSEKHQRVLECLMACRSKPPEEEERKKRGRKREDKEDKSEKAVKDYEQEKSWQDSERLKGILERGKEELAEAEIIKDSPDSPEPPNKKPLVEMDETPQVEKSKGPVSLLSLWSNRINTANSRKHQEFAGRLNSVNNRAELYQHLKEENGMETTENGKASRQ
UniProt Q96CN7: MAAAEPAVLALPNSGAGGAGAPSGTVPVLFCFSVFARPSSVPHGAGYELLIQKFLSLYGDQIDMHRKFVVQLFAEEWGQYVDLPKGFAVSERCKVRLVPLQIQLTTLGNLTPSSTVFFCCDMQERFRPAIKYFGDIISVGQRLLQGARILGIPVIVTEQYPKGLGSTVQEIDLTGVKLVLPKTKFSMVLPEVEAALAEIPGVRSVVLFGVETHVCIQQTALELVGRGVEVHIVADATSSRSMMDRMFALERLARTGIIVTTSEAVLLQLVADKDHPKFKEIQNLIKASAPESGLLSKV
UniProt O00410: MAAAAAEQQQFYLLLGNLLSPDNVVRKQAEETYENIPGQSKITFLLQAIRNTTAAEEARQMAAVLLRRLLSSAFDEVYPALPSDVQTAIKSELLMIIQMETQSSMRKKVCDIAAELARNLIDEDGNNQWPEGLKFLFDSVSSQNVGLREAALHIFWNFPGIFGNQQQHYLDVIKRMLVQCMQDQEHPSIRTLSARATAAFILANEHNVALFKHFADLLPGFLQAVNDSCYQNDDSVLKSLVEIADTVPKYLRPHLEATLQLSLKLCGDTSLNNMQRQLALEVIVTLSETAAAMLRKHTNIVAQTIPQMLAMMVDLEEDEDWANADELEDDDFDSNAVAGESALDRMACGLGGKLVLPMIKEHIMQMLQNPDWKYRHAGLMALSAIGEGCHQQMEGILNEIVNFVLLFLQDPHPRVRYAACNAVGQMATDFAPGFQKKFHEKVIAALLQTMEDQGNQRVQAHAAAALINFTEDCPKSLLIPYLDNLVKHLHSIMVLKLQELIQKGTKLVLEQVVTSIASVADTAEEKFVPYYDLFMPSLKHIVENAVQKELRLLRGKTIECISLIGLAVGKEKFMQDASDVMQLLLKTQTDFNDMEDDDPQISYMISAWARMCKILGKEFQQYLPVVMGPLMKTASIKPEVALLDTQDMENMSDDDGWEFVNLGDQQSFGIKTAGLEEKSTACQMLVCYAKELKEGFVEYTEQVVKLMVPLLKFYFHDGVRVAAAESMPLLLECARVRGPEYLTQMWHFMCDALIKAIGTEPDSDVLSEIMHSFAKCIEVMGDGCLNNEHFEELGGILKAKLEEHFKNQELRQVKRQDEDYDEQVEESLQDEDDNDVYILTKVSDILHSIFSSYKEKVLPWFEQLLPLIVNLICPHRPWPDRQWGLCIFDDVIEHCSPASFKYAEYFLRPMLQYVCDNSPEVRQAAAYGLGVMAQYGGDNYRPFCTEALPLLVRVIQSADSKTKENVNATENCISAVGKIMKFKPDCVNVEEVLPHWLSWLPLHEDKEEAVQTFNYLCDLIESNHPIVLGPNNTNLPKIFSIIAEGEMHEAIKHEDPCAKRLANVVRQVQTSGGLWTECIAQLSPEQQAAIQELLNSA
UniProt Q86U28: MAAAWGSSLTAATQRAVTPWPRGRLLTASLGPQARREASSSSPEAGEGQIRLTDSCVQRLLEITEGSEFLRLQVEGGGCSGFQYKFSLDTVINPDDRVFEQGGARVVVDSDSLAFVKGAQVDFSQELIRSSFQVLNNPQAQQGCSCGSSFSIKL
UniProt Q9H1K1: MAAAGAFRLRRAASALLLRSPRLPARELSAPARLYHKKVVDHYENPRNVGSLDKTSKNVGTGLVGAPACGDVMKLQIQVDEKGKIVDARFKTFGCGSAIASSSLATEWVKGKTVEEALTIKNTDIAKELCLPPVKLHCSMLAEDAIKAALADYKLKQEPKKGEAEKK
UniProt Q75QN2, whole entry, looked up: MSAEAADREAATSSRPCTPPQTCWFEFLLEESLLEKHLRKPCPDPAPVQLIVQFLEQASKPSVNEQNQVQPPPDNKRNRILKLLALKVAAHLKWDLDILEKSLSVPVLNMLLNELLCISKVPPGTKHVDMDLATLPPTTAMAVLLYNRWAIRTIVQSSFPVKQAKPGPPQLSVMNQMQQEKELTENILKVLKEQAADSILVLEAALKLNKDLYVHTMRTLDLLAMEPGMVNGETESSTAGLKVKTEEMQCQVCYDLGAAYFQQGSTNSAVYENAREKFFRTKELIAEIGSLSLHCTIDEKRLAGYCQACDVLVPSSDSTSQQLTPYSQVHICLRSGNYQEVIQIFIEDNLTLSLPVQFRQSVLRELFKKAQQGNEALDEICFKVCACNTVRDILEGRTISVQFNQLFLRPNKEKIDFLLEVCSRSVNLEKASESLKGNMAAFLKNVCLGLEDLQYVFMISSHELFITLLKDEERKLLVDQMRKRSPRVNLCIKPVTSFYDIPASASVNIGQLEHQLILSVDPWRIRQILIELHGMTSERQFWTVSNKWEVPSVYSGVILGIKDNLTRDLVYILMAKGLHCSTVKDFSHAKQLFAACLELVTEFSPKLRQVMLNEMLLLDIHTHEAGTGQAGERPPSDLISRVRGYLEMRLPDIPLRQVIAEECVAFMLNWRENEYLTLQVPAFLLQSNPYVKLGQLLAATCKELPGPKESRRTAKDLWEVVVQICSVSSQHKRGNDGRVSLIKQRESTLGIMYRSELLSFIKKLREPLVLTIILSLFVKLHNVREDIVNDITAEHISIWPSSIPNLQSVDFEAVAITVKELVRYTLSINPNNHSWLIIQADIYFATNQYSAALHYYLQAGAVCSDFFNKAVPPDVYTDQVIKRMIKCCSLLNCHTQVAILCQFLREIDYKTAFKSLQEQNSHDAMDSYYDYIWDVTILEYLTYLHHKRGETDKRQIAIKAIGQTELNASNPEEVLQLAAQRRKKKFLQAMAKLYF
UniProt P08648, whole entry, looked up: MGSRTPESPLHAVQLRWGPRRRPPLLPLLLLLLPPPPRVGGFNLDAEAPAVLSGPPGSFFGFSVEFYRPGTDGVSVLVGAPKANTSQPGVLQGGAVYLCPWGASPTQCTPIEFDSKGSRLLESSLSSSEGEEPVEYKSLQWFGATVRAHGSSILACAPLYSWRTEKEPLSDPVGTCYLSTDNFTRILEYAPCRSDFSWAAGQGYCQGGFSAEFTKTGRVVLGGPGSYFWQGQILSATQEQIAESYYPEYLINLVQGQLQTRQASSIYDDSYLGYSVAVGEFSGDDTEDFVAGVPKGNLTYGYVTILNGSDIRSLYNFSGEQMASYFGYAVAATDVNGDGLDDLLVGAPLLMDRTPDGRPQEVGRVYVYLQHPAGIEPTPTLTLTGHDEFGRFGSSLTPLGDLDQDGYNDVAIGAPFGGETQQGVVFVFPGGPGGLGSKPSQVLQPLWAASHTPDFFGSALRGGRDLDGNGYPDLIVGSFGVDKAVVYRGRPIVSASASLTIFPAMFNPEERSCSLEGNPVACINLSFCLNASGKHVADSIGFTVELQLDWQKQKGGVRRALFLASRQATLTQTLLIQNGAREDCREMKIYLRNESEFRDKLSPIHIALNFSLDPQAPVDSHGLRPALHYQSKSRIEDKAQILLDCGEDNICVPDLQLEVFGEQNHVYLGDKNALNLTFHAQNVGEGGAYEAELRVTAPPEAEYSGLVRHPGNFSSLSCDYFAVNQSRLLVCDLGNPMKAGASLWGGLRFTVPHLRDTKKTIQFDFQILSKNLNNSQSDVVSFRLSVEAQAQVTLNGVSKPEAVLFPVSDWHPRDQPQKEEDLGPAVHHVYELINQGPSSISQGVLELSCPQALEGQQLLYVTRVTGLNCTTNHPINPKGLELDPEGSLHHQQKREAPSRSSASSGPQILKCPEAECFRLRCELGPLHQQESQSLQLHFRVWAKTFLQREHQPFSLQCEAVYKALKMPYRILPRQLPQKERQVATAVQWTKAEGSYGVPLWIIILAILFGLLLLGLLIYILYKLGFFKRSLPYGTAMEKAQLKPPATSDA
UniProt Q9NRY2: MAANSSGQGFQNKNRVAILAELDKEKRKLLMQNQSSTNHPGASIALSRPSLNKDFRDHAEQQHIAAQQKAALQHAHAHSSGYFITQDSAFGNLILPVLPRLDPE

This note sets out measurements from the supplement of paper PMC10849652.

Compound in this test: c1cn2cc(-c3ccc4cn[nH]c4c3)nc(Nc3ccc(N4CCOCC4)cc3)c2n1 [entospletinib]
As to the kind of experiment: log2 fold change, soluble protein after heating vs DMSO (PISA); higher = thermal stabilisation; K562 cells, 10 uM, 30 min; active = over 0.2 and 3.5 SD of the protein, either way, in both replicates (recomputed). In a few lines:
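K562 cells at 2×10^6 cells/mL were treated with 10 μM compound for 30 min. Aliquots were heated for 3 min across 48°C-58°C, pooled, and extracted in PBS with 0.5% NP-40 at 4°C; soluble protein was the supernatant after 21,000xg for 90 min. Soluble protein was quantified by TMTpro 16plex LC-MS/MS with channel sums equalised, and reported as log2 fold change in thermal stability against DMSO controls, with values from duplicates.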
As for ITGB5 (UniProt P18084), the log2 fold change is inactive: -0.006. ITGAV (UniProt P06756): the log2 fold change was inactive: 0.046. As for ISL2 (UniProt Q96A47), the log2 fold change is inactive: 0.152. Under IGLC3 (UniProt P0DOY3) stands inactive: -0.364; under ITCH (UniProt Q96J02), inactive: 0; under IREB2 (UniProt P48200), inactive: 0.062. Under IGF2BP3 (UniProt O00425) stands inactive: 0.269. The value for IGBP1 (UniProt P78318) was inactive: -0.028; that for INPP5K (UniProt Q9BT40) was inactive: 0.15. Regarding IPO8 (UniProt O15397), the log2 fold change is inactive: 0.265. The value for IQSEC2 (UniProt Q5JU85) was inactive: -0.164; that for INTS13 (UniProt Q9NVM9) was inactive: 0.005; that for IRAK1 (UniProt P51617) was inactive: 0.116. Turning to ITIH3 (UniProt Q06033), the log2 fold change was inactive: 0.135. Under ITGB1 (UniProt P05556) stands inactive: -0.02; under ISOC1 (UniProt Q96CN7), inactive: -0.022; under IPO5 isoform 3 (UniProt O00410), inactive: 0.031. Under INTS11 (UniProt Q5TA45) stands inactive: 0.012; under ISCA2 (UniProt Q86U28), inactive: 0.011; under ISCU (UniProt Q9H1K1), inactive: -0.014. Under IGSF1 isoform 4 (UniProt Q8N6C5) stands inactive: -0.11.

For the target IDH3G (UniProt P51553), the log2 fold change was inactive: -0.044. The value for INTS8 (UniProt Q75QN2) was inactive: -0.001.

In the case of ITGA5 (UniProt P08648), the log2 fold change was inactive: -0.007. With IFT20 isoform 2 (UniProt Q8IY31), the log2 fold change is inactive: 0.048. Under IGSF8 (UniProt Q969P0) stands inactive: 0.084; under INIP (UniProt Q9NRY2), inactive: -0.058; under ITFG1 (UniProt Q8TB96), inactive: -0.29.

Turning to INO80E (UniProt Q8NBZ0), the log2 fold change was inactive: -0.012.
